These are yes or no findings as the source states them, for the method shown. Tags and fused reporters may be left off the sequences shown.
Biological target: GBI-Uba7-UFD fusion protein (human Uba7 ubiquitin-fold domain, residues 903-1011), wild type (human) (UniProt P41226)
Assay: NMR 15N relaxation

binding: no binding
B1: GBI-Uba7-UFD fusion protein (human Uba7 ubiquitin-fold domain, residues 903-1011), wild type (domain or fragment, UniProt P41226 903-1011, looked up)
chain: IQTFHHLKWTSWDRLKVPAGQPERTLESLLAHLQEQHGLRVRILLHGSALLYAAGWSPEKQAQHLPLRVTELVQQLTGQAPAPGQRVLVLELSCEGDDEDTAFPPLHYE
